No constants are given. Whether binding was seen depends on the method and setting. Some results given as binding are weak or reduced against the parent protein; the word gives no strength.
How the values were obtained:
[1] = target: fibrillar type I collagen (UniProt P02452); test: ELISA; solid-phase assay: biotin-peptides (50 µg.mL^−1) on microtitration wells coated with 1 µg of protein, detected with HRP-coupled extravidin; in competition collagelin was mixed with GPVI-Fc, 9O12.2 IgG or 3J24.2 IgG (50 µg.mL^−1 each) before addition to collagen-coated wells; both purified
[2] = target: fibrillar type I collagen (UniProt P02452); test: SPR; fibrillar type I collagen immobilised on a CM5 sensorchip, biotin-peptides (125, 250, 500 and 1000 µg.mL^−1) perfused; Biacore 2000; both purified
[3] = target: fibrillar type I collagen (UniProt P02452); test: ELISA; solid-phase assay: biotin-peptides (50 µg.mL^−1) on microtitration wells coated with 1 µg of protein, detected with HRP-coupled extravidin; in competition collagelin was mixed with GPVI-Fc, 9O12.2 IgG or 3J24.2 IgG (50 µg.mL^−1 each) before addition to collagen-coated wells; both purified; remark: listed apart in the source
type III collagen = type III collagen (UniProt P02461); test: as above

Protein sequences, listed by entry. Tags and fused reporters are not part of them. Lines headed by an entry give the natural chain unless they say otherwise; changes in a name come on top. Residues count along the entry.
UniProt P02452: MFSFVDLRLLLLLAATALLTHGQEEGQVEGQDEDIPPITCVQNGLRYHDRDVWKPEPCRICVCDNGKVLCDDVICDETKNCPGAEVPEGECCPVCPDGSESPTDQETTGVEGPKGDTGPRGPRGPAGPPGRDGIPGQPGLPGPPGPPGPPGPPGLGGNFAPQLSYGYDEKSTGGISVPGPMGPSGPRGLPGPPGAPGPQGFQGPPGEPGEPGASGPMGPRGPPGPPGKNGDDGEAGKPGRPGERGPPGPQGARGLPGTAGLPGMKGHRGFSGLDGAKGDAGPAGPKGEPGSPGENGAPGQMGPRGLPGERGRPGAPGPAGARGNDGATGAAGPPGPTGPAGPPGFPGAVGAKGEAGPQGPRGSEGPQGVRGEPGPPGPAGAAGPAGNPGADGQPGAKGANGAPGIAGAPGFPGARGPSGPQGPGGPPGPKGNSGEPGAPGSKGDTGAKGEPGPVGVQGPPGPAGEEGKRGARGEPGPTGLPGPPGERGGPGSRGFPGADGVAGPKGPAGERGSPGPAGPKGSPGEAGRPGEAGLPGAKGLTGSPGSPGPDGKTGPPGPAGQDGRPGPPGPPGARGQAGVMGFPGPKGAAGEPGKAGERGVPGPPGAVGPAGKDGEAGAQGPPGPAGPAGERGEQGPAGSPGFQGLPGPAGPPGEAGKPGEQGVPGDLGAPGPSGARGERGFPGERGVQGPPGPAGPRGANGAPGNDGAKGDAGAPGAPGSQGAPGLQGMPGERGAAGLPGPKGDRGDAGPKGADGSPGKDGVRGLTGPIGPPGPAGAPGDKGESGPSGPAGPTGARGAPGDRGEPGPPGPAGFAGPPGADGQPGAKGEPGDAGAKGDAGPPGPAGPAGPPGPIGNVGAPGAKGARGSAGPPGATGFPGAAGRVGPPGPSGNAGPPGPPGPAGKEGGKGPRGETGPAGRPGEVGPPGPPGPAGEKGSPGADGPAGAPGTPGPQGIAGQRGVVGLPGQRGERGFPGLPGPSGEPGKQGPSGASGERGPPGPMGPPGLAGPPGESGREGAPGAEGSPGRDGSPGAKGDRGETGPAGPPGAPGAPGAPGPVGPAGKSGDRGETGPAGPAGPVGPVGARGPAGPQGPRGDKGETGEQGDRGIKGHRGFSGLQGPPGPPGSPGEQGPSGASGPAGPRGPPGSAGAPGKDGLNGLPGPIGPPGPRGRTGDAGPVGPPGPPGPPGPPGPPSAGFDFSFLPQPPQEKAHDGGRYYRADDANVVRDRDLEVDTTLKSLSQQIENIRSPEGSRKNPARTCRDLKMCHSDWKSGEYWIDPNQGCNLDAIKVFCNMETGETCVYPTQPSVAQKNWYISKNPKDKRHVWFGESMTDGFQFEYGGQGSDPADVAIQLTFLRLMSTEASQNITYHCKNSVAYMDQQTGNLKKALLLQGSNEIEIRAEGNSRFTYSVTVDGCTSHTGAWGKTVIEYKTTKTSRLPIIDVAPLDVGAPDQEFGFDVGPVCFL
UniProt P02461, residues 154-1221: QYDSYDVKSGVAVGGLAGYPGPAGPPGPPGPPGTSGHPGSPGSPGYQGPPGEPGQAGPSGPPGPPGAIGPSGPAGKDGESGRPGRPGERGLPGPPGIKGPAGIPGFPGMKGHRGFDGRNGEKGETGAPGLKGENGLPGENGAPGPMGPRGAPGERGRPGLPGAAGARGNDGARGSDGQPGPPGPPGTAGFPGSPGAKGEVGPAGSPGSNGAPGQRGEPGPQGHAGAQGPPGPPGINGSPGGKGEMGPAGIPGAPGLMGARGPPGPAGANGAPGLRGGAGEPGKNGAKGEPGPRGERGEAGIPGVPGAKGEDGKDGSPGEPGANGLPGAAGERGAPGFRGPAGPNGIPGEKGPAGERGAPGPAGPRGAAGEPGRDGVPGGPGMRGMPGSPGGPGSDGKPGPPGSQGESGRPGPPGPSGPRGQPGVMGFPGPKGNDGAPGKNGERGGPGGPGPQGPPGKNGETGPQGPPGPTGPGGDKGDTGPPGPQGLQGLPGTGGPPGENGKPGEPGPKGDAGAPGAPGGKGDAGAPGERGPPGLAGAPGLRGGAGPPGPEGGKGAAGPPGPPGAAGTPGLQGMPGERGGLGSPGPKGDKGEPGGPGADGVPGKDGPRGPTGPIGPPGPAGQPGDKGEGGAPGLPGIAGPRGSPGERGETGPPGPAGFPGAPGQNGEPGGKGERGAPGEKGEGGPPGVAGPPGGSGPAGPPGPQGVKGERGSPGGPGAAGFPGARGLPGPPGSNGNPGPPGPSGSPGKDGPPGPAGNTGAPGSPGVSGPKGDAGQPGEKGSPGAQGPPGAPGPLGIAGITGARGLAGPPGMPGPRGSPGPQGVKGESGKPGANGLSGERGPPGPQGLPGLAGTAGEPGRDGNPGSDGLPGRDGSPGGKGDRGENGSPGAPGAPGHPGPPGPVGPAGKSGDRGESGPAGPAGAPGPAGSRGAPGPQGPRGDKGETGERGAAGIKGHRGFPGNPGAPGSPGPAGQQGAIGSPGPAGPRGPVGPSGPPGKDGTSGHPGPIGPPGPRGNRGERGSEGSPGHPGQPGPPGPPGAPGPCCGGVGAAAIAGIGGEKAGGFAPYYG
UniProt Q9HCN6, residues 21-267: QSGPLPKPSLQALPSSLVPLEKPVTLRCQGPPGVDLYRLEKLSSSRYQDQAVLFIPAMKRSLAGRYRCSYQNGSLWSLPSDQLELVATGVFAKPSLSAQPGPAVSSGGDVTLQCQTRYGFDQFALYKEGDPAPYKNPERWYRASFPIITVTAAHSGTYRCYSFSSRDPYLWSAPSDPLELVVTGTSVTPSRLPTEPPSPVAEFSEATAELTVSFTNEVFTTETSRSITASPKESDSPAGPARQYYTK

soluble recombinant GPVI-Fc (from UniProt Q9HCN6 21-267) (Fc fusion)
binding [1]: binds

B1: cyclic control peptide Pc, biotinylated (B-Pc) (peptide)
peptide: SGSGCGPQGARGLTGASAGGPC
modifications: biotinylated at the N-terminus; cyclic
binding [2]: no binding (tested: 125, 250, 500 and 1000 µg.mL^−1) | binding [3]: no binding (tested: 50 µg.mL^−1) | binding (type III collagen): no binding (tested: 50 µg.mL^−1)

From publication PMC2680759, “Non-Invasive Molecular Imaging of Fibrosis Using a Collagen-Targeted Peptidomimetic of the Platelet Collagen Receptor Glycoprotein VI” (PLoS ONE, 2009)
